Results deposited as PubChem BioAssay AID1224830 (NIAID, 2016)
Test: 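Genes whose knock-down alters the TNF-alpha reporter response to LPS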 (primary screen). System: human THP-1 monocytic leukaemia cells, TNF dual-luciferase reporter clone, PMA-differentiated to macrophage-like cells. Reagent: siRNA pool against human genes, 50 nM. Time to read-out: LPS for 4 h, given about 3 days after siRNA transfection. Treatment: bacterial LPS (TLR4 ligand), 10 ng/ml. Read-out: 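Ratio of firefly to renilla light, scaled to the plate median and expressed as a robust z-score per replicate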. Reading the numbers: TNF reporter robust z-score: higher = stronger TNF reporter response to LPS. Call rule: 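a well is active when its z-score exceeds 2.8 or falls below -1.5; control wells carry no call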.
Shown is a random part of about 18,000 reagents tested. About 2,900 of them (16%) count as active. 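Calls are made per well; low scores hint the gene aids the LPS response, high scores that it dampens it.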 A number with no mark means an inactive call. Repeated entries: four replicate wells of each siRNA pool.

no.	gene symbol	PubChem SID	TNF reporter robust z-score
1	PAX9 (paired box 9)	SID315450435	0.63
2	PAX9 (paired box 9)	SID315450435	0.69
3	PAX9 (paired box 9)	SID315450435	0.05
4	PAX9 (paired box 9)	SID315450435	1.68
5	CDH10 (cadherin 10)	SID315447835	0.65
6	CDH10 (cadherin 10)	SID315447835	0.05
7	CDH10 (cadherin 10)	SID315447835	-0.92
8	CDH10 (cadherin 10)	SID315447835	0.24
9	SGO2 (shugoshin 2)	SID315462484	0.82
10	SGO2 (shugoshin 2)	SID315462484	0.43
11	SGO2 (shugoshin 2)	SID315462484	0.87
12	CRYAA (crystallin alpha A)	SID315448101	0.57
13	CRYAA (crystallin alpha A)	SID315448101	-0.96
14	CRYAA (crystallin alpha A)	SID315448101	-0.57
15	CRYAA (crystallin alpha A)	SID315448101	-0.54
16	CCL3 (C-C motif chemokine ligand 3)	SID315451328	-1.37
17	CCL3 (C-C motif chemokine ligand 3)	SID315451328	-1.4
18	CCL3 (C-C motif chemokine ligand 3)	SID315451328	-0.94
19	CCL3 (C-C motif chemokine ligand 3)	SID315451328	-0.87
20	TULP1 (TUB like protein 1)	SID315452013	1.22
21	TULP1 (TUB like protein 1)	SID315452013	0.78
22	TULP1 (TUB like protein 1)	SID315452013	0.19
23	TULP1 (TUB like protein 1)	SID315452013	0.28
24	PPP3CC (protein phosphatase 3 catalytic subunit gamma)	SID315450766	-0.78
25	PPP3CC (protein phosphatase 3 catalytic subunit gamma)	SID315450766	0.68
26	PPP3CC (protein phosphatase 3 catalytic subunit gamma)	SID315450766	-1.04
27	PPP3CC (protein phosphatase 3 catalytic subunit gamma)	SID315450766	1.15
28	ZNF713 (zinc finger protein 713)	SID315464256	1.74
29	ZNF713 (zinc finger protein 713)	SID315464256	3.3 (active)
30	ZNF713 (zinc finger protein 713)	SID315464256	1.31
31	ZNF713 (zinc finger protein 713)	SID315464256	0.65
32	CCL26 (C-C motif chemokine ligand 26)	SID315454020	0.42
33	CCL26 (C-C motif chemokine ligand 26)	SID315454020	0.59
34	CCL26 (C-C motif chemokine ligand 26)	SID315454020	0.35
35	CCL26 (C-C motif chemokine ligand 26)	SID315454020	0.51
36	ADCYAP1R1 (ADCYAP receptor type I)	SID315447194	-1.39
37	ADCYAP1R1 (ADCYAP receptor type I)	SID315447194	-0.9
38	ADCYAP1R1 (ADCYAP receptor type I)	SID315447194	-0.91
39	ADCYAP1R1 (ADCYAP receptor type I)	SID315447194	-0.96
40	SRSF2 (serine and arginine rich splicing factor 2)	SID315451385	-1.1
41	SRSF2 (serine and arginine rich splicing factor 2)	SID315451385	-1
42	SRSF2 (serine and arginine rich splicing factor 2)	SID315451385	-1.24
43	SRSF2 (serine and arginine rich splicing factor 2)	SID315451385	-1.09
44	IER5 (immediate early response 5)	SID315456604	-0.7
45	IER5 (immediate early response 5)	SID315456604	0.49
46	IER5 (immediate early response 5)	SID315456604	0.41
47	IER5 (immediate early response 5)	SID315456604	0.15
48	DEFB107A (defensin beta 107A)	SID315463373	0.57
49	DEFB107A (defensin beta 107A)	SID315463373	0.7
50	DEFB107A (defensin beta 107A)	SID315463373	-0.43
51	DEFB107A (defensin beta 107A)	SID315463373	-0.64
52	USP54 (ubiquitin specific peptidase 54)	SID315462688	-0.6
53	USP54 (ubiquitin specific peptidase 54)	SID315462688	-1.39
54	USP54 (ubiquitin specific peptidase 54)	SID315462688	-0.36
55	USP54 (ubiquitin specific peptidase 54)	SID315462688	-0.41
56	PYCR2 (pyrroline-5-carboxylate reductase 2)	SID315456216	1.9
57	PYCR2 (pyrroline-5-carboxylate reductase 2)	SID315456216	1.17
58	PYCR2 (pyrroline-5-carboxylate reductase 2)	SID315456216	2.82 (active)
59	PYCR2 (pyrroline-5-carboxylate reductase 2)	SID315456216	4.29 (active)
60	GNG8 (G protein subunit gamma 8)	SID315461127	-0.58
61	GNG8 (G protein subunit gamma 8)	SID315461127	-1.01
62	GNG8 (G protein subunit gamma 8)	SID315461127	-0.3
63	GNG8 (G protein subunit gamma 8)	SID315461127	-0.66
64	ABCG2 (ATP binding cassette subfamily G member 2 (JR blood group))	SID315453280	-0.34
65	ABCG2 (ATP binding cassette subfamily G member 2 (JR blood group))	SID315453280	0.45
66	ABCG2 (ATP binding cassette subfamily G member 2 (JR blood group))	SID315453280	0
67	TNNI3K (TNNI3 interacting kinase)	SID315456456	-1.72 (active)
68	TNNI3K (TNNI3 interacting kinase)	SID315456456	0.6
69	TNNI3K (TNNI3 interacting kinase)	SID315456456	-0.08
70	TNNI3K (TNNI3 interacting kinase)	SID315456456	1.21
71	RPL34 (ribosomal protein L34)	SID315451199	0.71
72	RPL34 (ribosomal protein L34)	SID315451199	1.24
73	RPL34 (ribosomal protein L34)	SID315451199	0.78
74	RPL34 (ribosomal protein L34)	SID315451199	1.7
75	TRPM4	SID315457163	0.38
76	TRPM4	SID315457163	0.34
77	TRPM4	SID315457163	0.46
78	TRPM4	SID315457163	0.74
79	TPGS1 (tubulin polyglutamylase complex subunit 1)	SID315460971	0.45
80	TPGS1 (tubulin polyglutamylase complex subunit 1)	SID315460971	0.12
81	TPGS1 (tubulin polyglutamylase complex subunit 1)	SID315460971	-0.03
82	TPGS1 (tubulin polyglutamylase complex subunit 1)	SID315460971	-0.32
83	NIFK (nucleolar protein interacting with the FHA domain of MKI67)	SID315460348	-1.26
84	NIFK (nucleolar protein interacting with the FHA domain of MKI67)	SID315460348	-1.07
85	NIFK (nucleolar protein interacting with the FHA domain of MKI67)	SID315460348	-1.16
86	NIFK (nucleolar protein interacting with the FHA domain of MKI67)	SID315460348	-0.43
87	PPP2R5D (protein phosphatase 2 regulatory subunit B'delta)	SID315450761	0.4
88	PPP2R5D (protein phosphatase 2 regulatory subunit B'delta)	SID315450761	1.2
89	PPP2R5D (protein phosphatase 2 regulatory subunit B'delta)	SID315450761	-0.75
90	PPP2R5D (protein phosphatase 2 regulatory subunit B'delta)	SID315450761	1.53
91	PRTFDC1 (phosphoribosyl transferase domain containing 1)	SID315458188	0.9
92	PRTFDC1 (phosphoribosyl transferase domain containing 1)	SID315458188	1.85
93	PRTFDC1 (phosphoribosyl transferase domain containing 1)	SID315458188	-0.29
94	PRTFDC1 (phosphoribosyl transferase domain containing 1)	SID315458188	0.27
95	PSMD6 (proteasome 26S subunit, non-ATPase 6)	SID315453627	-1.61 (active)
96	PSMD6 (proteasome 26S subunit, non-ATPase 6)	SID315453627	-1.52 (active)
97	PSMD6 (proteasome 26S subunit, non-ATPase 6)	SID315453627	-0.75
98	PSMD6 (proteasome 26S subunit, non-ATPase 6)	SID315453627	-0.38
99	PPP2R2C (protein phosphatase 2 regulatory subunit Bgamma)	SID315450755	0.15
100	PPP2R2C (protein phosphatase 2 regulatory subunit Bgamma)	SID315450755	0.25
101	PPP2R2C (protein phosphatase 2 regulatory subunit Bgamma)	SID315450755	1.68
102	PPP2R2C (protein phosphatase 2 regulatory subunit Bgamma)	SID315450755	0.71
103	DCAF13 (DDB1 and CUL4 associated factor 13)	SID315455526	-0.23
104	DCAF13 (DDB1 and CUL4 associated factor 13)	SID315455526	-0.1
105	DCAF13 (DDB1 and CUL4 associated factor 13)	SID315455526	-0.51
106	DCAF13 (DDB1 and CUL4 associated factor 13)	SID315455526	-0.39
107	TSR2 (TSR2 ribosome maturation factor)	SID315460782	0.87
108	TSR2 (TSR2 ribosome maturation factor)	SID315460782	1.4
109	TSR2 (TSR2 ribosome maturation factor)	SID315460782	2.48
110	TSR2 (TSR2 ribosome maturation factor)	SID315460782	2.12
111	PRB1 (proline rich protein BstNI subfamily 1)	SID315450774	0.39
112	PRB1 (proline rich protein BstNI subfamily 1)	SID315450774	0.53
113	PRB1 (proline rich protein BstNI subfamily 1)	SID315450774	-0.9
114	PRB1 (proline rich protein BstNI subfamily 1)	SID315450774	-0.84
115	LRTM1 (leucine rich repeat transmembrane protein 1)	SID315458372	-0.84
116	LRTM1 (leucine rich repeat transmembrane protein 1)	SID315458372	-0.47
117	LRTM1 (leucine rich repeat transmembrane protein 1)	SID315458372	-0.82
118	LRTM1 (leucine rich repeat transmembrane protein 1)	SID315458372	-0.69
119	KLF4 (KLF transcription factor 4)	SID315453190	-0.45
120	KLF4 (KLF transcription factor 4)	SID315453190	-0.24
121	KLF4 (KLF transcription factor 4)	SID315453190	-0.66
122	KLF4 (KLF transcription factor 4)	SID315453190	-1.02
123	PLEKHA1 (pleckstrin homology domain containing A1)	SID315458680	-0.91
124	PLEKHA1 (pleckstrin homology domain containing A1)	SID315458680	-0.35
125	PLEKHA1 (pleckstrin homology domain containing A1)	SID315458680	-0.7
126	PLEKHA1 (pleckstrin homology domain containing A1)	SID315458680	-1.15
127	DIS3L (DIS3 like exosome 3'-5' exoribonuclease)	SID315461326	-0.36
128	DIS3L (DIS3 like exosome 3'-5' exoribonuclease)	SID315461326	-1.18
129	DIS3L (DIS3 like exosome 3'-5' exoribonuclease)	SID315461326	-0.81
130	DIS3L (DIS3 like exosome 3'-5' exoribonuclease)	SID315461326	-0.17
131	FCN2 (ficolin 2)	SID315448659	-0.17
132	FCN2 (ficolin 2)	SID315448659	0
133	FCN2 (ficolin 2)	SID315448659	0.24
134	FCN2 (ficolin 2)	SID315448659	-0.81
135	RGPD7 (retired record)	SID315465132	1.3
136	RGPD7 (retired record)	SID315465132	1.48
137	RGPD7 (retired record)	SID315465132	1.04
138	RGPD7 (retired record)	SID315465132	0.3
139	NAA50 (N-alpha-acetyltransferase 50, NatE catalytic subunit)	SID315459706	0.16
140	NAA50 (N-alpha-acetyltransferase 50, NatE catalytic subunit)	SID315459706	2.86 (active)
141	NAA50 (N-alpha-acetyltransferase 50, NatE catalytic subunit)	SID315459706	3.32 (active)
142	NAA50 (N-alpha-acetyltransferase 50, NatE catalytic subunit)	SID315459706	2.42

11 of these entries, set out differently:
gene symbol | PubChem SID | TNF reporter robust z-score
GNG8 (G protein subunit gamma 8) | SID315461127 | -0.3
GNG8 (G protein subunit gamma 8) | SID315461127 | -0.66
ABCG2 (ATP binding cassette subfamily G member 2 (JR blood group)) | SID315453280 | -0.34
ABCG2 (ATP binding cassette subfamily G member 2 (JR blood group)) | SID315453280 | 0.45
ABCG2 (ATP binding cassette subfamily G member 2 (JR blood group)) | SID315453280 | 0
TNNI3K (TNNI3 interacting kinase) | SID315456456 | -1.72 (active)
TNNI3K (TNNI3 interacting kinase) | SID315456456 | 0.6
TNNI3K (TNNI3 interacting kinase) | SID315456456 | -0.08
TNNI3K (TNNI3 interacting kinase) | SID315456456 | 1.21
RPL34 (ribosomal protein L34) | SID315451199 | 0.71
RPL34 (ribosomal protein L34) | SID315451199 | 1.24
